Results deposited as PubChem BioAssay AID1259283 (Sanger Institute, 2017).

Purpose: 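Kinome-wide siRNA search for kinases acting with BYL719, cetuximab or trametinib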 (primary screen)
System: HT115 colorectal cancer cells
Reagents: siRNA pool against human genes
Conditions: anchor drug given one day after siRNA: BYL719 at 1 µM, cetuximab at 5 µg/ml, trametinib at 10 nM, or DMSO vehicle alone
Detection: 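Viability normalised to non-targeting pool #2 wells and averaged over replicates, robust z-score against control wells, and a synergy score for each of three drugs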
Reading the numbers: robust z-score, knock-down alone: higher = more viable cells after knock-down; viability, DMSO vs non-targeting control: higher = more viable cells; synergy score with BYL719 and synergy score with cetuximab and synergy score with trametinib: higher = stronger synergy with drug (synthetic lethal)
Call rule: 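a gene counts as essential when its robust z-score with knock-down alone is below -3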
Meaning of the calls: active = essential (z below -3, no drug); inactive = no change without drug
In all, the deposit lists 794 reagents; this is an unselected part. Of all reagents, 14 (1.8%) got an active call. 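Calls reflect only viability loss without drug; drug synergy does not enter the call.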 Entries without a mark were called inactive. Viability is capped at 1. Reagent sequences are not shown. Not stated in the record: the amount of reagent, the time to read-out.

target gene | robust z-score, knock-down alone | viability, DMSO vs non-targeting control (fraction of control) | synergy score with BYL719 | synergy score with cetuximab | synergy score with trametinib
NUP107 (nucleoporin 107) | -1.96 | 0.746 | -0.0861 | -0.0433 | 0.0127
EPHA5 (EPH receptor A5) | 0.789 | 1 | 0.0311 | 0.0609 | -0.0446
NME5 (NME/NM23 family member 5) | 0.708 | 0.993 | 0.0437 | -0.0132 | 0.0995
FOXP1 (forkhead box P1) | 0.0343 | 0.93 | 0.0848 | 0.0591 | 0.134
FN3KRP (fructosamine 3 kinase related protein) | -0.807 | 0.852 | 0.0499 | 0.135 | 0.249
TSSK2 (testis specific serine kinase 2) | -0.392 | 0.891 | 0.104 | 0.1 | 0.15
TRIM27 (tripartite motif containing 27) | 0.789 | 1 | 0.109 | 0.128 | 0.114
RPS6KB2 (ribosomal protein S6 kinase B2) | 0.279 | 0.953 | 0.0249 | 0.112 | 0.118
SPEG (striated muscle enriched protein kinase) | 0.789 | 1 | -0.0224 | 0.0094 | 0.0261
CHD9 (chromodomain helicase DNA binding protein 9) | -0.64 | 0.868 | -0.0581 | 0.131 | 0.0356
PIK3R1 (phosphoinositide-3-kinase regulatory subunit 1) | 0.457 | 0.969 | 0.00693 | -0.00805 | 0.0424
KSR2 (kinase suppressor of ras 2) | -0.647 | 0.867 | -0.0681 | 0.0152 | 0.152
PIP5KL1 (phosphatidylinositol-4-phosphate 5-kinase like 1) | 0.265 | 0.952 | 0.0591 | 0.0446 | 0.0762
SRPK3 (SRSF protein kinase 3) | -0.306 | 0.899 | -0.0198 | -0.00986 | -0.0292
TPD52L3 (TPD52 like 3) | 0.789 | 1 | 0.0413 | -0.0435 | 0.193
WNK3 (WNK lysine deficient protein kinase 3) | -0.696 | 0.863 | -0.0047 | -0.0335 | -0.142
RAD21 (RAD21 cohesin complex component) | -0.424 | 0.888 | -0.00321 | 0.0354 | 0.0873
NEK6 (NIMA related kinase 6) | 0.789 | 1 | -0.0224 | -0.0203 | -0.128
ERN1 (endoplasmic reticulum to nucleus signaling 1) | -1.97 | 0.745 | -0.196 | -0.0593 | -0.0569
PIK3R3 (phosphoinositide-3-kinase regulatory subunit 3) | 0.789 | 1 | -0.0224 | -0.0231 | -0.0311
GK2 (glycerol kinase 2) | 0.74 | 0.995 | 0.039 | 0.0333 | 0.0784
LCK (LCK proto-oncogene, Src family tyrosine kinase) | 0.789 | 1 | 0.00693 | 0.173 | -0.0106
RPS6KA1 (ribosomal protein S6 kinase A1) | 0.789 | 1 | 0.0287 | 0.00571 | 0.0886
TP53BP1 (tumor protein p53 binding protein 1) | -0.0495 | 0.923 | 0.0815 | 0.0694 | 0.0675
SOX9 (SRY-box transcription factor 9) | -0.857 | 0.848 | -0.0981 | 0.0718 | 0.169
GUCY2D (guanylate cyclase 2D, retinal) | -1.97 | 0.745 | 0.154 | 0.216 | 0.2
AURKA (aurora kinase A) | -2.78 | 0.67 | 0.173 | 0.129 | 0.0963
CDK1 (cyclin dependent kinase 1) | 0.227 | 0.948 | -0.0543 | 0.0478 | -0.109
PIK3CG | 0.789 | 1 | 0.0688 | 0.0847 | -0.0217
NEK8 (NIMA related kinase 8) | -0.621 | 0.87 | 0.081 | 0.00933 | 0.0984
PAK5 (p21 (RAC1) activated kinase 5) | -0.555 | 0.876 | -0.0833 | 0.000666 | 0.0979
PNKP (polynucleotide kinase 3'-phosphatase) | -0.832 | 0.85 | 0.0462 | 0.053 | 0.182
MAP3K4 (mitogen-activated protein kinase kinase kinase 4) | 0.789 | 1 | 0.052 | -0.00315 | 0.0441
ROS1 (ROS proto-oncogene 1, receptor tyrosine kinase) | -1.47 | 0.792 | -0.109 | -0.0586 | 0.055

2 consecutive entries from above, quoted:
target gene | robust z-score, knock-down alone | viability, DMSO vs non-targeting control (fraction of control) | synergy score with BYL719 | synergy score with cetuximab | synergy score with trametinib
PNKP (polynucleotide kinase 3'-phosphatase) | -0.832 | 0.85 | 0.0462 | 0.053 | 0.182
MAP3K4 (mitogen-activated protein kinase kinase kinase 4) | 0.789 | 1 | 0.052 | -0.00315 | 0.0441
